Assay results from paper PMC7171158.
These are yes or no findings as the source states them, for the method shown.

T1: antiterminator protein Q from phage λ (λQ), full length (phage λ) (UniProt P03047)
T1 sequence: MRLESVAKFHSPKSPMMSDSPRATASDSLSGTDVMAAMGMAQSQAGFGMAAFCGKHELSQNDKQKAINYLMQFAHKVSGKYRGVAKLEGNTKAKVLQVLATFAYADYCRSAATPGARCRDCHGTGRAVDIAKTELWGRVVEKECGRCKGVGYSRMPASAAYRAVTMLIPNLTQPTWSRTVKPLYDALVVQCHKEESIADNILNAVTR

B1: λQ deletion variant lacking 36 residues at the N-terminus (λQ^Δ36) (domain or fragment, UniProt P03047 37-207)
chain: AMGMAQSQAGFGMAAFCGKHELSQNDKQKAINYLMQFAHKVSGKYRGVAKLEGNTKAKVLQVLATFAYADYCRSAATPGARCRDCHGTGRAVDIAKTELWGRVVEKECGRCKGVGYSRMPASAAYRAVTMLIPNLTQPTWSRTVKPLYDALVVQCHKEESIADNILNAVTR
B2: antiterminator protein Q from phage λ (λQ), full length (protein, UniProt P03047 1-207)
chain: T1 sequence

Legend:
[1] = molecular target: λQ deletion variant lacking 36 residues at the N-terminus (λQ^Δ36) (phage λ) (UniProt P03047); test: 15N NMR relaxation (rotation correlation time); 15N R1 and R2 of 15N-λQ^Δ36 at 298 K, 700.2 MHz (16.8 T); isotropic tumbling assumed; both purified
[2] = molecular target: λQ deletion variant lacking 36 residues at the N-terminus (λQ^Δ36) (phage λ) (UniProt P03047); test: SEC; analytical gel filtration, Superdex 75 10/300 GL; 20 mM Tris/HCl pH 7.5, 150 mM NaCl, 5% glycerol; 250 µg protein per run; standard curve; both purified
[3] = molecular target: T1, antiterminator protein Q from phage λ (λQ), full length (phage λ); test: as above

Binder | binding [1] | binding [2] | binding [3]
B1 | no binding | no binding | 
B2 |  |  | no binding
